From US20100137445A1, “PLANT DISEASE CONTROL AGENT, AND PLANT DISEASE CONTROL METHOD” (SUMITOMO CHEMICAL COMPANY ,LIMITED, priority 2007, published 2010)
Some entries share one result that the patent states for a list of compounds.

Key:
Type in all cases: in vivo
[1] = system: Alternaria brassicicola; test: Test of preventive effect on Alternaria leaf spot; conditions: Japanese radish (Wase 40-nichi) seedling, foliage application 500 ppm before inoculation, 1 day high humidity 24° C. then 3 days greenhouse
[2] = system: Fusarium culmorum; test: Test of Preventive Effect on Wheat Fusarium Blight; conditions: wheat (Shirogane) seedling, foliage application 500 ppm before inoculation, 4 days dark high humidity 23° C. then 3 days lighting
[3] = system: Phytophthora infestans; conditions: tomato (Patio) seedling, foliage application 500 ppm before inoculation, 1 day high humidity 23° C. then 4 days greenhouse
[4] = system: Plasmopara viticola; test: Test of Preventive Effect on Grape Downy Mildew; conditions: grape (Berry-A) seedling infected 1 day before foliage application 500 ppm, 5 days greenhouse 23° C. then 1 day high humidity

Row | SMILES | area of lesion spots on the treated plant relative to that on the untreated plant [2] [%] | area of lesion spots on the treated plant relative to that on the untreated plant [3] [%] | further results
1 | COc1cc(C(=O)N[C@@H](C)C2CCCCC2)cc(OC)c1OC [present compound 4, N-((1S)-1-cyclohexylethyl)-3,4,5-trimethoxybenzamide] |  |  | area of lesion spots on the treated plant relative to that on the untreated plant [1]: ≤ 30%
2 | COc1c(F)cc(C(=O)N[C@@H](C)C2CCCCC2)cc1F [present compound 11, N-((1S)-1-cyclohexylethyl)-3,5-difluoro-4-methoxybenzamide] | ≤ 30 |  | 
3 | COc1cc(C(=O)NCC2CCCCC2)cc(OC)c1OC [present compound 2, N-(cyclohexylmethyl)-3,4,5-trimethoxybenzamide] |  | ≤ 30 | 
4 | COc1ccc(C(=O)N[C@@H](C)C2CCCCC2)cc1OC [present compound 3, N-((1S)-1-cyclohexylethyl)-3,4-dimethoxybenzamide] |  | ≤ 30 | 
5 | COc1c(F)cc(C(=O)NC2CCCCC2C)cc1F (stereo not shown) [present compound 8, N-(2-methylcyclohexyl)-3,5-difluoro-4-methoxybenzamide] | ≤ 30 |  | 
6 | COc1ccc(C(=O)NCC2CCCCC2)cc1F [present compound 7, N-(cyclohexylmethyl)-3-fluoro-4-methoxybenzamide] | ≤ 30 |  | 
7 | COc1ccc(C(=O)N[C@@H](C)C(C)(C)C)cc1F [present compound 27, N-((1S)-1,2,2-trimethylpropyl)-3-fluoro-4-methoxybenzamide] | ≤ 30 | ≤ 30 | 
8 | COc1ccc(C(=O)NCC2CCCCC2)cc1OC [present compound 1, N-(cyclohexylmethyl)-3,4-dimethoxybenzamide] |  | ≤ 30 | 
9 | COc1c(F)cc(C(=O)NCC2(O)CCCCC2)cc1F [present compound 19, N-(1-hydroxycyclohexyl)methyl-3,5-difluoro-4-methoxybenzamide] |  |  | area of lesion spots on the treated plant relative to that on the untreated plant [1]: ≤ 30%; area of lesion spots on the treated plant relative to that on the untreated plant [4]: ≤ 30%
10 | COc1c(F)cc(C(=O)NC(C)C2CCC2)cc1F (stereo not shown) [present compound 18, N-(1-cyclobutylethyl)-3,5-difluoro-4-methoxybenzamide] |  | ≤ 30 | area of lesion spots on the treated plant relative to that on the untreated plant [4]: ≤ 30%
